{"source": "PubChem BioAssay AID1259425, University of Nebraska Medical Center | 2018", "aim": "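Find knockdowns that reproduce the gene expression pattern seen when KSR1 is lost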 (primary screen)", "system": "HCT116 human colon cancer cells", "knock-down reagent": "siRNA pool against human genes, 50 nM siRNA", "read-out": "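mRNA of six signature genes measured together by branched-DNA assay after 50 nM siRNA pool, blank removed, divided by geometric mean of two housekeeping genes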", "scale": "BNIP3L mRNA: higher = more BNIP3L transcript after knockdown; NDRG1 mRNA: higher = more NDRG1 transcript after knockdown", "note": "Shown is a random part of about 14,000 reagents. Further read-outs or replicates are left out here. Not given: the time to read-out."}
{"target":"PARD6B (par-6 family cell polarity regulator beta)","BNIP3L mRNA, set 1":0.0959,"NDRG1 mRNA, set 1":0.304}
{"target":"EIF3A (eukaryotic translation initiation factor 3 subunit A)","BNIP3L mRNA, set 1":0.0373,"NDRG1 mRNA, set 1":0.0771}
{"target":"RBM10 (RNA binding motif protein 10)","BNIP3L mRNA, set 1":0.102,"NDRG1 mRNA, set 1":0.375}
{"target":"CRYGD (crystallin gamma D)","BNIP3L mRNA, set 1":0.0724,"NDRG1 mRNA, set 1":0.0624}
{"target":"COL4A4 (collagen type IV alpha 4 chain)","BNIP3L mRNA, set 1":0.0556,"NDRG1 mRNA, set 1":0.103}
{"target":"CAV3 (caveolin 3)","BNIP3L mRNA, set 1":0.102,"NDRG1 mRNA, set 1":0.122}
{"target":"SOX15 (SRY-box transcription factor 15)","BNIP3L mRNA, set 1":0.419,"NDRG1 mRNA, set 1":0.533}
{"target":"SOD3 (superoxide dismutase 3)","BNIP3L mRNA, set 1":0.0877,"NDRG1 mRNA, set 1":0.156}
{"target":"MANBA (mannosidase beta)","BNIP3L mRNA, set 1":0.129,"NDRG1 mRNA, set 1":0.257}
{"target":"TWIST2 (twist family bHLH transcription factor 2)","BNIP3L mRNA, set 1":0.0869,"NDRG1 mRNA, set 1":0.063}
{"target":"GALK1 (galactokinase 1)","BNIP3L mRNA, set 1":0.204,"NDRG1 mRNA, set 1":0.686}
{"target":"CHRNA1 (cholinergic receptor nicotinic alpha 1 subunit)","BNIP3L mRNA, set 1":0.083,"NDRG1 mRNA, set 1":0.0853}
{"target":"IGHV5-78 (immunoglobulin heavy variable 5-78 (pseudogene))","BNIP3L mRNA, set 1":0.108,"NDRG1 mRNA, set 1":0.705}
{"target":"INTS8 (integrator complex subunit 8)","BNIP3L mRNA, set 1":0.13,"NDRG1 mRNA, set 1":0.895}
{"target":"HIVEP2 (HIVEP zinc finger 2)","BNIP3L mRNA, set 1":0.223,"NDRG1 mRNA, set 1":0.19}
{"target":"CYSTM1 (cysteine rich transmembrane module containing 1)","BNIP3L mRNA, set 1":0.143,"NDRG1 mRNA, set 1":0.329}
{"target":"RAC3 (Rac family small GTPase 3)","BNIP3L mRNA, set 1":0.0435,"NDRG1 mRNA, set 1":0.0488}
{"target":"CLCN3 (Cl-/H+ antiporter 3)","BNIP3L mRNA, set 1":0.0844,"NDRG1 mRNA, set 1":0.107}
{"target":"PDZD7 (PDZ domain containing 7)","BNIP3L mRNA, set 1":0.183,"NDRG1 mRNA, set 1":0.206}
{"target":"AGBL5 (AGBL carboxypeptidase 5)","BNIP3L mRNA, set 1":0.187,"NDRG1 mRNA, set 1":0.0381}
{"target":"FAM3A (FAM3 metabolism regulating signaling molecule A)","BNIP3L mRNA, set 1":0.0654,"NDRG1 mRNA, set 1":0.19}
{"target":"CEP78 (centrosomal protein 78)","BNIP3L mRNA, set 1":0.226,"NDRG1 mRNA, set 1":0.227}
{"target":"PSEN2 (presenilin 2)","BNIP3L mRNA, set 1":0.129,"NDRG1 mRNA, set 1":0.326}
{"target":"PAPOLA (poly(A) polymerase alpha)","BNIP3L mRNA, set 1":0.0782,"NDRG1 mRNA, set 1":0.186}
{"target":"HOXD3 (homeobox D3)","BNIP3L mRNA, set 1":0.173,"NDRG1 mRNA, set 1":0.155}
{"target":"OCM2 (oncomodulin 2)","BNIP3L mRNA, set 1":0.206,"NDRG1 mRNA, set 1":0.17}
{"target":"CD47 (CD47 molecule)","BNIP3L mRNA, set 1":0.125,"NDRG1 mRNA, set 1":0.0787}
{"target":"PTGDR2 (prostaglandin D2 receptor 2)","BNIP3L mRNA, set 1":0.194,"NDRG1 mRNA, set 1":0.195}

No new results follow: 2 of the entries above.
{"target":"MANBA (mannosidase beta)","BNIP3L mRNA, set 1":0.129,"NDRG1 mRNA, set 1":0.257}
{"target":"TWIST2 (twist family bHLH transcription factor 2)","BNIP3L mRNA, set 1":0.0869,"NDRG1 mRNA, set 1":0.063}
